Results are given in words; binding and its absence hold for the method and conditions named. Some binding calls cover weakened binding; strength is not graded here.

Among the data in PMC2816223, “Designed Coiled-Coil Peptides Inhibit the Type Three Secretion System of Enteropathogenic Escherichia coli” (PLoS ONE, 2010) are binding values, retold here.

The experiment deals with EspA (E. coli EPEC E2348/69 (endogenous)) (UniProt Q47184). As to the kind of experiment: Western blot of polymer species.

B1: EspA (protein, UniProt Q47184 1-192)
chain: MDTSTTASVASANASTSTSMAYDLGSMSKDDVIDLFNKLGVFQAAILMFAYMYQAQSDLSIAKFADMNEASKESTTAQKMANLVDAKIADVQSSSDKNAKAQLPDEVISYINDPRNDITISGIDNINAQLGAGDLQTVKAAISAKANNLTTTVNNSQLEIQQMSNTLNLLTSARSDMQSLQYRTISGISLGK
As for B1, the binding result was “binds”.
